Assay results from article PMC2702331.
Results are given in words; binding and its absence hold for the method and conditions named. In cells and extracts the contact can be indirect. A yes stands for co-enrichment or nearness to the bait. Other partners may have been found.

Sequences of proteins named here, by UniProt entry; tags and fusion partners are left off.
UniProt P04608: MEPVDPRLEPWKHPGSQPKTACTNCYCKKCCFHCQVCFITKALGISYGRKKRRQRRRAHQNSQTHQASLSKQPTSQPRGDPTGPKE
UniProt O96019: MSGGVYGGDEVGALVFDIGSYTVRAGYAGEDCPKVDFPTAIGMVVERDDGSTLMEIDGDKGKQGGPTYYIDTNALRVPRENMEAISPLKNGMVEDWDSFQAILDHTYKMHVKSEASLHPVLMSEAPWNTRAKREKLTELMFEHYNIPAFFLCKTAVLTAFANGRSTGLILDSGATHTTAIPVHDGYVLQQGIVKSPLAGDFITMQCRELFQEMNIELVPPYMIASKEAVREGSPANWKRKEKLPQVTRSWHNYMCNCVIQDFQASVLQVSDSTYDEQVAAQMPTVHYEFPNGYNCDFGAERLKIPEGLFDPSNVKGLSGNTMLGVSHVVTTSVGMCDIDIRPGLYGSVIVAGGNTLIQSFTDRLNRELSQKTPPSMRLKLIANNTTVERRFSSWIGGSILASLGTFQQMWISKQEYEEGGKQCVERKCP
UniProt Q9P0U4: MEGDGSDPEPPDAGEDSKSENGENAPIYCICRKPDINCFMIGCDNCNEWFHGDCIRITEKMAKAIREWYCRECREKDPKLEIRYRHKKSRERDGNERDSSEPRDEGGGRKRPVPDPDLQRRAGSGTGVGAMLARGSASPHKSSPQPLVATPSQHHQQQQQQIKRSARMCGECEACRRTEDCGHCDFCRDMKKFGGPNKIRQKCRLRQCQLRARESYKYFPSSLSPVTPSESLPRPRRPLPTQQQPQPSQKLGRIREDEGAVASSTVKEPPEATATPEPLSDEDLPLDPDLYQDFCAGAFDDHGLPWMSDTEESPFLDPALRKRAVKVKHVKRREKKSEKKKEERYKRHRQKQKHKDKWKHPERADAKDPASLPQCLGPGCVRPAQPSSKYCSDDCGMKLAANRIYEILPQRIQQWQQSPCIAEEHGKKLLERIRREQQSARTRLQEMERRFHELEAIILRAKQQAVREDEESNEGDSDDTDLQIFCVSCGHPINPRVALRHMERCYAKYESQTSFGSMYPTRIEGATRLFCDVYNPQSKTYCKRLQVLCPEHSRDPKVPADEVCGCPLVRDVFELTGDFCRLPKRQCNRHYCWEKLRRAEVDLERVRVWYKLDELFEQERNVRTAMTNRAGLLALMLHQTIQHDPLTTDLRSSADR
UniProt Q9NPF5: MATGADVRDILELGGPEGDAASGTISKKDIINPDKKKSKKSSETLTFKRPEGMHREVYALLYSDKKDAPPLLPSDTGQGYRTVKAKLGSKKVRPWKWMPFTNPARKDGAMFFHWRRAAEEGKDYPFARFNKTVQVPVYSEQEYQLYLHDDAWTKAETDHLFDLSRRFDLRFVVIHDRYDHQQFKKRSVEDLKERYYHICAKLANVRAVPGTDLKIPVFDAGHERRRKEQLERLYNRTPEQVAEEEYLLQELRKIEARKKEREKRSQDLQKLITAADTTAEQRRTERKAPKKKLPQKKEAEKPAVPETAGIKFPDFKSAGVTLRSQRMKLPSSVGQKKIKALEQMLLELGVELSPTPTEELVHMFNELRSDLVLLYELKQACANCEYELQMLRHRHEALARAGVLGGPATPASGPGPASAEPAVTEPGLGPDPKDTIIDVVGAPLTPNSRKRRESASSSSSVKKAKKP
UniProt P63167: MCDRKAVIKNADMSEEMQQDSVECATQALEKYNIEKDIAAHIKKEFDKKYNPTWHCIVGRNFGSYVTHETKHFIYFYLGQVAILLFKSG
UniProt Q9UBB5: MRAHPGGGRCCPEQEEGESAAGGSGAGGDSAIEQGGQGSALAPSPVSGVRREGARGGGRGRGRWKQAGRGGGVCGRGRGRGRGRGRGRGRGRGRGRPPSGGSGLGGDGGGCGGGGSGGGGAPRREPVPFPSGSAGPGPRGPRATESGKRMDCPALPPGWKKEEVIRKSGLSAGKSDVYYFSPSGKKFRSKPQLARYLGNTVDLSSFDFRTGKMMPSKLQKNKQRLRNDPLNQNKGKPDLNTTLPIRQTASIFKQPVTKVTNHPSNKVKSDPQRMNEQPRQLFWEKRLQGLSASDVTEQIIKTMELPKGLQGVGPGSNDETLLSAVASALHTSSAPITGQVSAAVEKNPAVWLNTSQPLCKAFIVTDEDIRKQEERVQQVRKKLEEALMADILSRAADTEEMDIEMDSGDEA
UniProt Q9NTI5: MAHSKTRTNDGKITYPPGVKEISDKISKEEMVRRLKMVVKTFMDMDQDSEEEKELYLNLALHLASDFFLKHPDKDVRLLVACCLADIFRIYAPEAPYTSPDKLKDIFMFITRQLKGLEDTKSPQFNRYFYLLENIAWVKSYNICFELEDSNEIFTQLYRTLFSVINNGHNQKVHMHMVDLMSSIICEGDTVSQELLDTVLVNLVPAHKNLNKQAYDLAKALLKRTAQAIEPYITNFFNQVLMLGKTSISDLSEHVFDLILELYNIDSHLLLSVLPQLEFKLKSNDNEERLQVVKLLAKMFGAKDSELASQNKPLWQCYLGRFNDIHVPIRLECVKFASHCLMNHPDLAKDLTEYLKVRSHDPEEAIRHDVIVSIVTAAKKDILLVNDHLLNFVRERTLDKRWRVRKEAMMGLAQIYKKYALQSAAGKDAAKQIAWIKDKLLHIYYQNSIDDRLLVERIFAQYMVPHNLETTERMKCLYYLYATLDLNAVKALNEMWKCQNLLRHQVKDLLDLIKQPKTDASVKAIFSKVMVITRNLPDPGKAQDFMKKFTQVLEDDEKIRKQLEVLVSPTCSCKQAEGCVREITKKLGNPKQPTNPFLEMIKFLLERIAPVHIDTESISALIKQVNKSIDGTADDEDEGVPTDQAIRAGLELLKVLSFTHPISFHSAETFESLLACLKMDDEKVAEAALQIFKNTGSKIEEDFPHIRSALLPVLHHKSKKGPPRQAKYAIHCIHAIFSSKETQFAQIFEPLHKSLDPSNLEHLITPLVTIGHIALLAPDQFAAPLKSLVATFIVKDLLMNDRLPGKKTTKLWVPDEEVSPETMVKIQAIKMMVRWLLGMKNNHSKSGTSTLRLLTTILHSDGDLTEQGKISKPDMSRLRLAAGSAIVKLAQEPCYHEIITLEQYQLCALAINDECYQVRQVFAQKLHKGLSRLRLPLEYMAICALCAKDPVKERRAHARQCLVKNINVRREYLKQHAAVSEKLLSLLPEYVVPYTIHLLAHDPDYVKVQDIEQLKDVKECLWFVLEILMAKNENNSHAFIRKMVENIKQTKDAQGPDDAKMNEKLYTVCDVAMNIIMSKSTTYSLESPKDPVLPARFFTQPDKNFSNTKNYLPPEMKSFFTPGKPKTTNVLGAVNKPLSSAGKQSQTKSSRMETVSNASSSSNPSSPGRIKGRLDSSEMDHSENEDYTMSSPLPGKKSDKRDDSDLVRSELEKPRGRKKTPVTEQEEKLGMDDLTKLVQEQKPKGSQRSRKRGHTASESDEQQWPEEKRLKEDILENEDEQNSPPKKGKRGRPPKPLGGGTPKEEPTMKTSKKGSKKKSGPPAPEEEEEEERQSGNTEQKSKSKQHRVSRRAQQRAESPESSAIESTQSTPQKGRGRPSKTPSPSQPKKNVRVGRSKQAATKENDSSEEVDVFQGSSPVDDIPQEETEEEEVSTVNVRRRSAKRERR
UniProt Q09028: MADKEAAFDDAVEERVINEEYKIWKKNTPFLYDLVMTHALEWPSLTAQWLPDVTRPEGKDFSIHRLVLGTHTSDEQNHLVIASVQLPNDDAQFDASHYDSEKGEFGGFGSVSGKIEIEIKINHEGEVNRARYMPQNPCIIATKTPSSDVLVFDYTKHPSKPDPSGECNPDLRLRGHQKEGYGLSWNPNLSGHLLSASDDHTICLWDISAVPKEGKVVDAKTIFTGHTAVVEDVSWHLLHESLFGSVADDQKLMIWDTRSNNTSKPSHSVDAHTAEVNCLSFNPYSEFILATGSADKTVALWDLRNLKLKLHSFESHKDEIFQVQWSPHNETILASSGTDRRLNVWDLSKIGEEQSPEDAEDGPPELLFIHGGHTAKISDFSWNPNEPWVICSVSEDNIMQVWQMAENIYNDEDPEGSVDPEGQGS
UniProt Q08945: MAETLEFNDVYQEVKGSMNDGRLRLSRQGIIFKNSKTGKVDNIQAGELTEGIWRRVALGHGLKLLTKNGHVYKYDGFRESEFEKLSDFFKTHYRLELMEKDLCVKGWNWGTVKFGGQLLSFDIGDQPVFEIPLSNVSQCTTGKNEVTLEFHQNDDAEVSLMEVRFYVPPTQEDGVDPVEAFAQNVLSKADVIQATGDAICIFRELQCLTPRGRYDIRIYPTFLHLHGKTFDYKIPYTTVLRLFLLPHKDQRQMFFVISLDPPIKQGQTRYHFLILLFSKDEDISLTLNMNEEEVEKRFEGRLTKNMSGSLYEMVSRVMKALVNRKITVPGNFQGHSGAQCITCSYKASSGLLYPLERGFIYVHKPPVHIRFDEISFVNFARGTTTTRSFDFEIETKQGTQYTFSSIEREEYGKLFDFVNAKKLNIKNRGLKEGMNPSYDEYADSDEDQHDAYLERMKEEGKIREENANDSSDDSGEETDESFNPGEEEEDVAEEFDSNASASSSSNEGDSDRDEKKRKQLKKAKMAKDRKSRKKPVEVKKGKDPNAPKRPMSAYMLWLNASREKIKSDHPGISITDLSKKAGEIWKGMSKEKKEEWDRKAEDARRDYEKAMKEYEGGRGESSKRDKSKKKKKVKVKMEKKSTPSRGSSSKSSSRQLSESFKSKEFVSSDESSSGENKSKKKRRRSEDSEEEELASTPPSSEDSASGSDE
UniProt Q15022: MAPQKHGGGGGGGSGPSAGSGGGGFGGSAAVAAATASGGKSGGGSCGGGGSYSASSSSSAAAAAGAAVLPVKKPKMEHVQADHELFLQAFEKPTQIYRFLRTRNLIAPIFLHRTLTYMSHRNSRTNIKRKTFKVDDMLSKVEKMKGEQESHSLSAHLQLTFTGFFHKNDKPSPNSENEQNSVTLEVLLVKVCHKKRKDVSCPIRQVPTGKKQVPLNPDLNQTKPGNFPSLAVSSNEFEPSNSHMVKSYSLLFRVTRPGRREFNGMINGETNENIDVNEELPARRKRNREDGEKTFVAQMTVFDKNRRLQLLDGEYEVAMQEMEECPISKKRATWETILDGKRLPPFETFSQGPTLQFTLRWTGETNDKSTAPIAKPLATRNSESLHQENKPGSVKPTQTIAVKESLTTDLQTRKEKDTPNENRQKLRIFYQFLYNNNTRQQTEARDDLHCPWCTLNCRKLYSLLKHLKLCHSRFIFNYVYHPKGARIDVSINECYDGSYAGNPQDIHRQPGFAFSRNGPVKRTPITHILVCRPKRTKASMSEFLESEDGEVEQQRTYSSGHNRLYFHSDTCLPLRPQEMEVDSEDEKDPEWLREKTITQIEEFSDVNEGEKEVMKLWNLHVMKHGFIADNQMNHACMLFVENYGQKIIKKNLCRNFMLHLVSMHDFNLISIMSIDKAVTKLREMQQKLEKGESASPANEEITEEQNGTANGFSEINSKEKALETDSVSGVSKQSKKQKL
UniProt O14980: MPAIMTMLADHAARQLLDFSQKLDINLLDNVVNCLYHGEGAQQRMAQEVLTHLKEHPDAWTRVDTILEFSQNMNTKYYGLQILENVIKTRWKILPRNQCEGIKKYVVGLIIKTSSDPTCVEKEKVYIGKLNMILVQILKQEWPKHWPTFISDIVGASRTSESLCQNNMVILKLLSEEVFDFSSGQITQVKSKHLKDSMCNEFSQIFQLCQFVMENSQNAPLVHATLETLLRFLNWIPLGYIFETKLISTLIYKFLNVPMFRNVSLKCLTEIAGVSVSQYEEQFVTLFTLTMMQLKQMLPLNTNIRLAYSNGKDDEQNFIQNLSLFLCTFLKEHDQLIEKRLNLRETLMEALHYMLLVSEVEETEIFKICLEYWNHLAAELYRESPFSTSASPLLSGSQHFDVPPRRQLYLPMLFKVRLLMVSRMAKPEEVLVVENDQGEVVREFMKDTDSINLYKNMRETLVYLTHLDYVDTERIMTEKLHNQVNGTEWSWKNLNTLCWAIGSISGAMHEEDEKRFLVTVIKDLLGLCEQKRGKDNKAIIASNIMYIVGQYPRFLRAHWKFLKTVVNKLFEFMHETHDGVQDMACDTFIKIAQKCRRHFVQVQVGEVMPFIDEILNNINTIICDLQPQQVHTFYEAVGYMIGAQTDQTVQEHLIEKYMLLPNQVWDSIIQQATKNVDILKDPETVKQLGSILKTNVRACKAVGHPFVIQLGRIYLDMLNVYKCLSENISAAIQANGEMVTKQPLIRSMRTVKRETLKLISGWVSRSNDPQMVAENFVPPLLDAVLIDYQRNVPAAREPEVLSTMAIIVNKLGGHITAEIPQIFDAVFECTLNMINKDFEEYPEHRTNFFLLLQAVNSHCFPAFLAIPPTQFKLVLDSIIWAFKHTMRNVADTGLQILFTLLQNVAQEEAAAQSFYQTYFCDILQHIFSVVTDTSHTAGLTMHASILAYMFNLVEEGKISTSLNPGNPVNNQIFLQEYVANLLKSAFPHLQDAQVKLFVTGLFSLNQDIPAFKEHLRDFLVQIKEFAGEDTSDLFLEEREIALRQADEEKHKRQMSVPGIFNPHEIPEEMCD

Target: GST-Tat (HIV-1 HXB2, 86 amino acids) (HIV-1 HXB2) (UniProt P04608)
Assay: affinity purification with mass spectrometry; only the target purified

Substance	binding
BAF53A (from UniProt O96019 1-429)	binds
BAF60a (from UniProt Q96GM5 1-515)	binds
BAF170 (from UniProt Q8TAQ2 1-1214)	binds
BRG1 (from UniProt P51532 1-1647)	binds
BTAF1 (from UniProt O14981 1-1849)	binds
CAPD2 (from UniProt Q15021 1-1401)	binds
CAPH (from UniProt Q15003 1-741)	binds
CTIP2 (from UniProt Q9C0K0 1-894)	binds
CXXC1 (from UniProt Q9P0U4 1-656)	binds
DMAP1 (from UniProt Q9NPF5 1-467)	binds
DNCL1 (from UniProt P63167 1-89)	binds
EEF1D (from UniProt P29692-2)	binds
HDAC-1 (from UniProt Q13547 1-482)	binds
HDAC-2 (from UniProt Q92769 1-488)	binds
ILF2 (from UniProt Q12905 1-390)	binds
INI1 (from UniProt Q12824 1-385)	binds
Ikaros (from UniProt Q13422 1-519)	binds
KPNB1 (from UniProt Q14974 1-876)	binds
Lamin B receptor (from UniProt Q14739 1-615)	binds
MBD2 (from UniProt Q9UBB5 1-411)	binds
MLL (from UniProt Q03164 1-3969)	binds
NUMA1 (from UniProt Q14980 1-2115)	binds
Nup98 (from UniProt P52948 1-880)	binds
Nup153 (from UniProt P49790 1-1475)	binds

Substance	binding
Nup205 (from UniProt Q92621 1-2012)	binds
Nup358 (from UniProt P49792 1-3224)	binds
P400 (from UniProt Q96L91 1-3159)	binds
PDS5A (from UniProt Q29RF7 1-1337)	binds
PDS5B (from UniProt Q9NTI5 1-1447)	binds
PPP1CC (from UniProt P36873 1-323)	binds
RUVBL1 (from UniProt Q9Y265 1-456)	binds
RbAp48 (from UniProt Q09028 1-425)	binds
SMC2 (from UniProt O95347 1-1197)	binds
SMC3 (from UniProt Q9UQE7 1-1217)	binds
SMC4 (from UniProt Q9NTJ3 1-1288)	binds
SNF2H (from UniProt O60264 1-1052)	binds
SPT16 (from UniProt Q9Y5B9 1-1047)	binds
SSRP1 (from UniProt Q08945 1-709)	binds
SUZ12 (from UniProt Q15022 1-739)	binds
Setd1A (from UniProt O15047 1-1707)	binds
TRRAP (from UniProt Q9Y4A5 1-3859)	binds
TUBB3 (from UniProt Q13509 1-450)	binds
XPO1 (from UniProt O14980 1-1071)	binds
YBX1 (from UniProt P67809 1-324)	binds
YEATS4 (from UniProt O95619 1-227)	binds
YY1 (from UniProt P25490 1-414)	binds
c1qbp (from UniProt Q07021 74-282)	binds
